Laboratory results taken from article PMC9499959.
These are yes or no findings as the source states them, for the method shown. In cells and extracts the contact can be indirect. These calls come from enrichment with a bait or labelling near it, and not all partners need be listed.

Experiments:
[1] = molecular target: NTAP-Dma1-5xGly-ubiquitin(7K→7R) (S. pombe | not stated) (UniProt Q10322); assay: affinity purification with mass spectrometry; tandem affinity purification (IgG Sepharose, TEV cleavage, calmodulin resin, EGTA elution) of NTAP-Dma1 variants from 8- to 10-L S. pombe cultures in NP-40 buffer; dma1Δ or mts3-1 dnt1Δ dma1Δ backgrounds; two-dimensional LC tandem MS
[2] = molecular target: T1, NTAP-Dma1ΔRF (S. pombe) (UniProt Q10322); assay: as above
T1 sequence: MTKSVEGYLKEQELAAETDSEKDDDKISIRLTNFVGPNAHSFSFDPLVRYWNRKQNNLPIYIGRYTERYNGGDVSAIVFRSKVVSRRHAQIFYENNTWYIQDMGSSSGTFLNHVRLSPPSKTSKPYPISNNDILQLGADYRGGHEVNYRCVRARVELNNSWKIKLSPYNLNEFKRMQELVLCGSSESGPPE

- binding [1]: binds
- binding [2]: binds
B1: Tip1 (found in TAP-Dma1 purifications) (protein, UniProt P79065 1-461)
chain: MFPLGSVVEVITGERGFVRYAGEVENRKGVYVGLELLPEFAEFGKNRGVVDGREYFKTKNNEKTGIFVPFDKCKLASSISSSPSPKIDGTAASIGMGFPPMSPNLQSSIPRLTNVSSSSNLSMNTISSTALTPTEKILQKRIEDLLYERQNHQQQLEEVLATVDQLQSLVTNFNDQQDEVDELRERITLKEERIQQMRNEASQRRFEFKTTIECLEESSNRAIETYENRIAELEAQLEMYMSGKSEDDLLFSLQQERDYALNQVEILQERVDTLMKQKANSSTANEKLSHMESSSPTLTNASFESPKRGKGSNDLPENHPQRRQTLEFYEIEIEVLREKVEKLQALSDEKDFYISKLEKSLDRNDTTPVPSDEKLSNYAAEKENLVSRISELEHTIEQLTINNERDNERMSPAEFELETTQEVEENDSDSHDDEETWCEVCETNNHSLQECPTVFGSTDEA
